In paper PMC1473194:
Results are given in words; binding and its absence hold for the method and conditions named. Some results given as binding are weak or reduced against the parent protein; the word gives no strength. Sequences can lack the tags named with a protein.

Amino acid sequences for entries named in this document (tags omitted). A change or cut given only in a name is not applied to a line headed by its entry.
UniProt P06803: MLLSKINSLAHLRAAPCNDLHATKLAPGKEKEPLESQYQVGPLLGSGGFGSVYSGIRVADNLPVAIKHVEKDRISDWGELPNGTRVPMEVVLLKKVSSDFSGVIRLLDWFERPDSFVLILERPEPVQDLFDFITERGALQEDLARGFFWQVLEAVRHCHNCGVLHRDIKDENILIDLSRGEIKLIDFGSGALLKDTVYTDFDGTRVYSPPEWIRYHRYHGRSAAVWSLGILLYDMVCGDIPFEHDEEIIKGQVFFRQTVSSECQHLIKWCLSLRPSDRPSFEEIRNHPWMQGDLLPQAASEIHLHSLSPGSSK

Key:
[1] = target: wild-type GAL4-Pim-1 fusion protein (GAL4 DNA-binding domain fused with wild-type Pim-1) (murine) (UniProt P06803); assay: two-hybrid; mating assay, modified two-hybrid with baits fused to the GAL4 DNA-binding domain and VP16-B19 as prey; growth of diploid strains on selective medium lacking histidine (Figure 1A)
[2] = target: mutant GAL4-Pim-1 fusion protein (GAL4 DNA-binding domain fused with kinase-deficient K67M Pim-1) (murine) (UniProt P06803); assay: as above
[3] = target: kinase-deficient K67M mutant of Pim-1 fused to the LexA DNA-binding domain (murine) (UniProt P06803); assay: two-hybrid; library screen; bait Pim-1 K67M fused to the LexA DNA-binding domain, prey cDNA library of EBV-transformed human lymphocytes fused to the VP16 activation domain; growth on histidine-deficient plates with 25 mM 3-aminotriazole and beta-galactosidase

Measured: binding

B1: VP16-B19 fusion protein (amino acids 264-404 of human RUNX3 fused to the VP16 activation domain) (domain or fragment, UniProt Q13761 264-404)
chain: PDPRMHYPGAMSAAFPYSATPSGTSISSLSVAGMPATSRFHHTYLPPPYPGAPQNQSGPFQANPSPYHLYYGTSSGSYQFSMVAGSSSGGDRSPTRMLASCTSSAASVAAGNLMNPSLGGQSDGVEADGSHSNSPTALSTP
binds: all assays above
